Data published in US20060135434 (published 2006).

Legend:
[1] = general procedure: Fmoc solid-phase peptide synthesis; Rink Amide AM resin (0.64 or 0.74 mmol/g; NovaBiochem); HBTU/HOBt/DIEA; conditions: whole synthesis, λ=215 nm, scale of the general procedure 0.25 mmol
[2] = general procedure: Fmoc solid-phase peptide synthesis; Rink Amide AM; HBTU/HOBt/DIEA; conditions: whole synthesis, scale 0.125 mmol

Substance | final HPLC purity [1] [%] | isolated mass [2] [mg]
Ala-Glu-Gly-Glu-Phe-(cyclo-[Dpr-N^β(CH2CO)-Arg-Val-Lys-Ile-Asp-Gly-Arg-Pro-Met-Cys])-Gly-Glu-Glu-Glu-Cys-NH2 | 90 | 
cyclo-[CH2CO-Arg-Val-Lys-Ile-Asp-Gly-Arg-Pro-Met-Cys]-Gly-Glu-Glu-Glu-Cys-NH2 | 95 | 81
cyclo-[CH2CO-Lys-Arg-Gly-Val-Ile-Asp-Pro-Met-Arg-Cys]-Gly-Glu-Glu-Glu-Cys-NH2 | 99 | 
